In publication PMC10514960:
Construct, isoform or probe ends are uncertain for at least one entry. For some of these results: Where a protein sequence is shown, tags need not be part of it.

How the values were obtained:
LlMYB305 = molecular target: T1, LlMYB305 (UniProt A0A8U0AUG0); test: EMSA; settings: EMSA: 20 min at room temperature, 6% native gel (40:1) at 4 °C, LightShift Chemiluminescent EMSA kit; salt and pH not stated; recombinant protein; protein details: GST (pGEX-4T-1); label: 5' biotin
T1 sequence (looked up, limits assumed): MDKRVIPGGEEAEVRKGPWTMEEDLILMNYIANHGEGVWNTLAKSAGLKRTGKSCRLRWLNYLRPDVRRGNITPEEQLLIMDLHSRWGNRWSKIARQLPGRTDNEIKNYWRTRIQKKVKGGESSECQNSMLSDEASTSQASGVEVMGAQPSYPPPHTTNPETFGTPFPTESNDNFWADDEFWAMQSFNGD

[1] = test system: LlC3H18 (Lilium longiflorum 'White heaven'); test: EMSA; settings: EMSA: 20 min at room temperature, 6% native gel (40:1) at 4 °C, LightShift Chemiluminescent EMSA kit, salt and pH not stated, recombinant protein, protein details: GST (pGEX-4T-1)

| Sequence | binding result (LlMYB305) | further results |
| --- | --- | --- |
| ATAGGGTACCTAATCTGAAAATGAGCACATGGGGTGGTTGACTCATCAAA (double strand) [ProLlC3H18-probe1] | binds |  |
| CAATTTCGCCTCCTTCTCCGAAGCAACAAATATCCATTTCATACGTGAGT (double strand) [ProLlWRKY33-probe] |  | binding result ([1]; label: 5' biotin): binds |
| GTCTATTCAGGAGGCAGTTGATATTTAGCTGATATTTTTC (double strand) [ProLlC3H18-probe2] | binds |  |
| UUAUUUAUUAUUUAUUUAUUAUUUAUUUAUUAUUUAUUUAUUA [ARE RNA] |  | binding result ([1]; label: label (5' biotin per EMSA Methods), letters put together from the description): binds |
